PubChem BioAssay AID1347423 (Functional Genomics Laboratory (NCATS/FGL), 2020)
Among all 52,000 sequences or so, about 210 (0.4%) were called active.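 How the source made its calls: active means gene whose silencing raises cell survival under the drug, median off-target-corrected z-score across its silencing RNAs 2 or more; inactive means the rest.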 This is one part of the list.

Test: Resistance to Poly (ADP-Ribose) Polymerase inhibitor: Gene Identification via Genome-wide siRNA Screen
Conditions: mouse BRCA2 R2336H ES cells, olaparib, CellTiter-Glo viability; stronger effect = higher value
How it was run: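 Genome-wide siRNA screen (3 siRNAs/gene, 20 nM) in mouse ES cells carrying hypomorphic BRCA2 R2336H; olaparib 500 nM added 48 h post-transfection, CellTiter-Glo viability 72 h later. Normalized to plate-median negative control; MAD z-scores, gene median, seed-adjusted.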

Sequence	z-score
GGACAGCAAGACAGAAAACTT against Csf2rb2	inactive: 0.00978
GCCAUGACCAUCUUUCUCUTT against Olfr1413	inactive: 1.79
UACUCUGGUAACACCCACUTT against Olfr98	inactive: 0.252
GCACGGUCAAGUUUUGAUUTT against Prkaa2	inactive: 0.432
GGGUCCAAAAGAAAAGUGUTT against 2810002I04Rik	inactive: 0.388
CGUCAUUCACCCUAAGCCATT against Odd1	inactive: 1.43
GGUAAAUGAUAUUCAUGGUTT against Pdlim2	inactive: 0.311
GGAAAUCUUACAGACUGAGTT against Grid2	active: 2.5
GGAGUUCGUCAACAAGAAGTT against Dll1	inactive: 1.41
GCAACGGAGGGUCAUUUCATT against 5730509C05Rik	inactive: -0.609
GGAUUUGCUGAUUUGUCAATT against Dufd1	inactive: 1.11
GGCAAGGUGUUUUAUAACATT against Flt4	inactive: 1.1
GGGUAGAAAUGAGAAGUUCTT against Tcf20	inactive: 0.789
CCCAAAUAUACCUGUGACATT against Txndc8	inactive: -1.37
GCCUACAGGAGUGAGAUAATT against Gm1082	inactive: -2.62
GGUGGAAUUCAUCAAGAACTT against Kcnc1	inactive: 0.333
GGACCUAAAGAUUGUCUUCTT against Stam	inactive: -2.44
GCAGAUCAAAUUUAGCUGATT against D8Ertd594e	inactive: 0.735
GGGUGGAGAAAAAAUGUACTT against 2410002O22Rik	inactive: -1.06
GGCUGUCAGUGUUUACAGGTT against Srd5a1	inactive: 0.555
GCUAUUGGGUAAUUUGCUUTT against Slco4a1	inactive: 1.79
CCGAGUCUCUUAGAAUAAUTT against Tcfcp2l1	inactive: 1.71
GCUUAUGGAGUCCCUUGAUTT against Mipep	inactive: 2.05
CCAUUGACACCUUAAAUAUTT against Cnot3	inactive: -1.94
GGCGUAAAAUUCAAACUCATT against Cr2	inactive: -1.03
GGAGUAGCUCUUCUGGAUCTT against D17Ertd288e	inactive: 0.766

Exported field by field: entries from further up
CCGAGUCUCUUAGAAUAAUTT against Tcfcp2l1
  z-score: inactive: 1.71
GGCGUAAAAUUCAAACUCATT against Cr2
  z-score: inactive: -1.03

Further records

Sequence	z-score
GGACAACUGGCUUCAGACATT against A330090H18	inactive: -1.76
CGACUUGCUAGGUCAGUGGTT against Echdc3	inactive: 0.594
GGGAAAUCCUUUCAAGGAGTT against Creb1	inactive: 0.531
GGUGAAGGUGUCGUACUUUTT against Padi1	inactive: 0.482
GGUACUCUACAUGCUUAAGTT against Nte	inactive: 0.939
GCCCUUCUUAAAAUCCUGGTT against Itih3	inactive: -0.151
GGAAGUGAAAACAAGCAAUTT against Hadhb	inactive: 0.469
GGUCUCGAAUGUAUGGUGCTT against Bicc1	inactive: 0.836
CCGAGAAAGUAUGCGCAACTT against Mlf1	inactive: -0.978
CCUGGUAGCUUCUUCUCAATT against Krt2-4	inactive: 1.24
CCUGCUGGGAUUUAUUCAATT against Pmvk	inactive: 1.41
GCCAGAUCCCUGGAAUGUATT against 1810009K13Rik	inactive: -0.942
GAAUGUGCAGAUAGCUGGCTT against Sdsl	inactive: -0.97
AUUGCAUUCCUCCAGACUGTT against 2900036K24Rik	inactive: 0.417
GGAAUAGCAUCACCAGUUGTT against Ches1	inactive: -1.29
CCAGACCAGGGAGAAAUCATT against AY053573	inactive: 2.19
GGAUCUGUGACUUUAACUUTT against D830013H12	inactive: 1.57
ACUAUGUGCGAAACUCGCGTT against Tmhs	inactive: 0.241
GCAGAAUCACCUAAUUGUGTT against Adora2b	inactive: 1.5
GGUGAAAGGAGCAAAUGAUTT against Fyco1	inactive: -0.096
CCGUAUCCGGCAUUGGAUUTT against Mrps16	inactive: 0.345
CCUAAAUACGAUUGGUGUGTT against Cdca4	inactive: 0.082
GGACGGUGACCUGUAUGAUTT against Cpxm1	inactive: -0.405
GGGACACUACAUGAAGGCCTT against Tnfrsf25	inactive: 2.2
GGAGUAUUUUUUCACAGUUTT against Olfr338	inactive: 0.765
GCCGGAGCACAACAAUUCUTT against Kcnn2	inactive: -0.076
